Test results as given in patent US10870102B2, “Radical generating catalyst, method for producing radical, method for producing oxidation reaction product, drug, and drug for agriculture and livestock” (ACENET INC., priority 2015, dated 2020).

Test system: Escherichia coli MV1184
Test: MIC/MBC determination, microplate
Format: cell-based
Conditions: MV1184, 24 h

CC(C)(C)CC(C)(C)c1ccc(OCCOCC[N+](C)(C)Cc2ccccc2)cc1 [Comp. Ex. 8, benzethonium chloride]
MIC: 17.5 µg/mL
